The target in assay [1] is T1, Myc-tagged MUS81 (human) (UniProt Q96NY9).
T1 sequence: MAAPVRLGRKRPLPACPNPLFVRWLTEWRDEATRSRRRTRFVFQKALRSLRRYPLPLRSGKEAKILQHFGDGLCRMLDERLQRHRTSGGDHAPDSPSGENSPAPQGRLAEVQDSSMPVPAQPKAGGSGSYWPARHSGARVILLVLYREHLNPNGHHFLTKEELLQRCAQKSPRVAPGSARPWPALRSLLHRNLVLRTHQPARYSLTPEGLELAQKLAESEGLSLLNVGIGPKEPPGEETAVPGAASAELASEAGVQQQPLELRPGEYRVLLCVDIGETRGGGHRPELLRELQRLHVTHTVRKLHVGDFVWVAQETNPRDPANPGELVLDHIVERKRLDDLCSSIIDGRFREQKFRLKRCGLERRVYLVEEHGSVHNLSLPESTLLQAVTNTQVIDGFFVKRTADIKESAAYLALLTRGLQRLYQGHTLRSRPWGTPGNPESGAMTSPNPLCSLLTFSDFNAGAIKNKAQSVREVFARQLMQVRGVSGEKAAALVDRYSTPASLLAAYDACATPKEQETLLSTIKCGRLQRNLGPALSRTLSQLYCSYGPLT
The experiment in a line: co-IP + pull-down; Myc-MUS81 and GST-EME1 co-expressed in 293T; benzonase-treated nuclear lysate on anti-Myc agarose, washed in 300 mM NaCl, 0.5% Triton X-100, eluted with Myc peptide, then captured on GSH-agarose and eluted with 25 mM glutathione; SDS-PAGE with Coomassie staining.

Assay [2] addresses T2, purified 6xHis-tagged RAD52 (human) (UniProt P43351).
T2 sequence: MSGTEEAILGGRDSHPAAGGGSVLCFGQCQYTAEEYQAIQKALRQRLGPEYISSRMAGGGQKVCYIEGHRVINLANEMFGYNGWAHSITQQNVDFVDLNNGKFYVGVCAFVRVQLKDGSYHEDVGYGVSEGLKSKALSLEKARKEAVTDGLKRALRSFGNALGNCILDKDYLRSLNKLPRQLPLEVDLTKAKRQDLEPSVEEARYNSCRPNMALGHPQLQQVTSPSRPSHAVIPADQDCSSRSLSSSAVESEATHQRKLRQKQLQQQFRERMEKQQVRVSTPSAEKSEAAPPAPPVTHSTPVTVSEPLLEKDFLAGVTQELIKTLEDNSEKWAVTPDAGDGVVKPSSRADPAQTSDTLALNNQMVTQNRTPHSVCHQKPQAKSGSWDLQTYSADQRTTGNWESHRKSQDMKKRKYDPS
Nature of the assay: pull-down; 5 ug purified His-tagged RAD52 as bait incubated overnight with 1 mg benzonase-treated HeLa nuclear extract in Tris/Cl pH 7.6, 150 mM NaCl, 0.5% Triton X-100; captured with anti-His antibody-coupled Protein G (magnetic beads) 1 h at RT; Western blotting; only the target purified. For orientation: A western blot detects proteins with antibodies after separation by electrophoresis.

Among the data in PMC3814295 are binding values, retold here.

Results are given in words; binding and its absence hold for the method and conditions named. Binding seen in cells or lysates may run through a third protein. Some results given as binding are weak or reduced against the parent protein; the word gives no strength. Tags and fused reporters may be left off the sequences shown.

B1: GST-tagged EME1 (protein, UniProt Q96AY2 1-570)
chain: MALKKSSPSLDSGDSDSEELPTFAFLKKEPSSTKRRQPEREEKIVVVDISDCEASCPPAPELFSPPVPEIAETVTQTQPVRLLSSESEDEEEFIPLAQRLTCKFLTHKQLSPEDSSSPVKSVLDHQNNEGASCDWKKPFPKIPEVPLHDTPERSAADNKDLILDPCCQLPAYLSTCPGQSSSLAVTKTNSDILPPQKKTKPSQKVQGRGSHGCRQQRQARQKESTLRRQERKNAALVTRMKAQRPEECLKHIIVVLDPVLLQMEGGGQLLGALQTMECRCVIEAQAVPCSVTWRRRAGPSEDREDWVEEPTVLVLLRAEAFVSMIDNGKQGSLDSTMKGKETLQGFVTDITAKTAGKALSLVIVDQEKCFSAQNPPRRGKQGANKQTKKQQQRQPEASIGSMVSRVDAEEALVDLQLHTEAQAQIVQSWKELADFTCAFTKAVAEAPFKKLRDETTFSFCLESDWAGGVKVDLAGRGLALVWRRQIQQLNRVSLEMASAVVNAYPSPQLLVQAYQQCFSDKERQNLLADIQVRRGEGVTSTSRRIGPELSRRIYLQMTTLQPHLSLDSAD
Consider B1, for which, in assay [1], the binding entry was “binds”.

B2: MUS81 (HeLa nuclear extract) (protein, UniProt Q96NY9 1-551)
chain: MAAPVRLGRKRPLPACPNPLFVRWLTEWRDEATRSRRRTRFVFQKALRSLRRYPLPLRSGKEAKILQHFGDGLCRMLDERLQRHRTSGGDHAPDSPSGENSPAPQGRLAEVQDSSMPVPAQPKAGGSGSYWPARHSGARVILLVLYREHLNPNGHHFLTKEELLQRCAQKSPRVAPGSARPWPALRSLLHRNLVLRTHQPARYSLTPEGLELAQKLAESEGLSLLNVGIGPKEPPGEETAVPGAASAELASEAGVQQQPLELRPGEYRVLLCVDIGETRGGGHRPELLRELQRLHVTHTVRKLHVGDFVWVAQETNPRDPANPGELVLDHIVERKRLDDLCSSIIDGRFREQKFRLKRCGLERRVYLVEEHGSVHNLSLPESTLLQAVTNTQVIDGFFVKRTADIKESAAYLALLTRGLQRLYQGHTLRSRPWGTPGNPESGAMTSPNPLCSLLTFSDFNAGAIKNKAQSVREVFARQLMQVRGVSGEKAAALVDRYSTPASLLAAYDACATPKEQETLLSTIKCGRLQRNLGPALSRTLSQLYCSYGPLT
B2: in assay [2], the binding entry is listed as “binds”.
